A short description of the test: qHTS Assay for Lipid Storage Modulators in Drosophila S3 Cells.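 As to cell number change: cells counted by Cell Tracker Red CMTPX staining in the red channel.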 The settings on record: BODIPY lipid droplet fluorescence, 18-24 h; for cell number change: measured here: cell count max response, cells fed with added oleic acid. The gist of the method: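 Laser-scanning cytometry quantifies lipid droplet accumulation (500–530 nm total intensity; droplet/cell object ratio) in oleic acid-fed (400 uM added) Drosophila S3 cells treated with a concentration series. 20 uM Triacsin C defined 100% inhibition.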
(In general: qHTS replaces the single test concentration by a dilution series.)

Where [1] appears, read: measured here: cell number channel AC50, cells fed with added oleic acid.
Setting [2] is: measured here: lipid fluorescence (Fed channel) AC50, cells fed with added oleic acid.

Some of the results follow. Shown are side measurements of this screen, not its main read-out; they come without a call. Most of these compounds were active or inconclusive in the main read-out, so they are no random draw. The note in brackets gives the kind of curve behind each potency; many fits are weak.

Broadly, the AC50 is the concentration giving half of the maximal activity seen. Low readings indicate greater potency, high ones weaker potency. For `O=c1c2ccccc2nc(CNCC2CCCO2)n1-c1ccc(F)cc1` (stereo not drawn), the cell number change was determined as 90.5%. In addition, under setting [1], the AC50 is 18.4 µM [rising, single point].
For the compound `CC(C)(C)C(=O)OCC12CCC(O1)C1(C)C(=O)OCC21` (stereo not drawn), the cell number change is -19.6%.
Regarding `CCCCCC(=O)N[C@@H](c1ccccc1)[C@@H](O)C(=O)O[C@H]1C[C@@]2(O)[C@@H](OC(=O)c3ccccc3)C3[C@](C)(C(=O)[C@H](O)C(=C1C)C2(C)C)[C@@H](OC1OCC(O)C(O)C1O)C[C@H]1OC[C@@]31OC(C)=O` (stereo partly drawn), the cell number change was -9.39%. Besides, under setting [2], the concentration at half-maximal activity (AC50) is 0.326 µM [falling, full curve].
For `CC(C(N)=O)N1CC(c2ccccc2)CC1=O` (stereo not drawn), the cell number change was 1.96%.
As for `Cc1ccc(-c2nc3ccccc3c(=O)n2-c2ccc(O)cc2)cc1`, the cell number change was determined as 102%. Further, under setting [1], the AC50 was 16.4 µM [rising, partial curve]. Further, the half-maximal activity concentration (AC50) under setting [2] is 18.4 µM [rising, partial curve].
As to `COc1cc2c(cc1OC)C(C(=O)NC(C)C)C1CCCCN1C2=O` (stereo not drawn), the cell number change is 20.4%. For the same compound, the AC50 under setting [2] was 29.1 µM [rising, single point].
Take `CCOC(=O)c1c(/N=C/c2c(O)n(-c3ccc(F)cc3)c(=S)[nH]c2=O)sc2c1CCCC2`: the cell number change amounted to 11.4%. Besides, the AC50 under setting [2] is 0.146 µM [falling, full curve, poor fit].
`COc1ccc(O)c(C(C)(C)C)c1`: the cell number change turned out to be 118%. Further, under setting [1], the AC50 is 29.1 µM [rising, single point].
`CCOC(=O)C1SC2(C(F)F)CC1(O)c1c(c(OC)c3occc3c1OC)O2` (stereo not drawn): the AC50 is, setting by setting: under setting [1], 0.517 µM [rising, full curve]; under setting [2], 0.58 µM [rising, full curve].
In the case of `Cc1ccc(N=C(N(C)C)P(=O)(N(C)C)N(C)C)cc1`, the cell number change is -18.3%. The AC50 under setting [2] is 0.164 µM [falling, full curve, poor fit].
Consider `CN1C(=O)C(Cc2c[nH]c3ccccc23)C(=O)N(C)C1=O`, for which the half-maximal activity concentration (AC50) under setting [1] is 6.51 µM [rising, single point] and the concentration at half-maximal activity (AC50) under setting [2] is 5.17 µM [rising, single point].
Take `CN(CC(=O)Nc1cccc(F)c1)C(=O)Cn1c(=O)oc2ccccc21`: the concentration at half-maximal activity (AC50) under setting [1] is 0.00731 µM [falling, full curve, poor fit].
For `O=C1NC(=O)C2(C(=O)N1)C(c1ccc(F)cc1)NC(=S)NC2c1ccc(F)cc1` (stereo not drawn), the cell number change is -102%. For the same compound, the AC50 under setting [1] was 16.4 µM [falling, single point]. Further, the AC50 under setting [2] is 0.259 µM [rising, full curve, poor fit].
Take `CCOCCCNC(=O)CN1C2CCC1CC(O)(c1ccc(OC)cc1)C2` (stereo not drawn): the cell number change was 5.36%. Besides, the half-maximal activity concentration (AC50) under setting [2] is 0.651 µM [rising, full curve, poor fit].
In the case of `Fc1ccc(C2=CCN(C(c3cccs3)c3nnnn3CCc3ccccc3)CC2)cc1` (stereo not drawn), the cell number change was determined as 52.7%. In addition, the AC50 under setting [1] was 7.31 µM [rising, partial curve]. Under setting [2], the AC50 was 3.26 µM [rising, partial curve].
Consider `Cn1c2ccccc2c2c(C(=O)N3CCC4(CC3)OCCO4)cn(C3CCCC3)c(=O)c21`, for which the half-maximal activity concentration (AC50) runs as follows: under setting [1], 4.11 µM [rising, partial curve]; under setting [2], 4.61 µM [rising, partial curve].
As to `O=C(Cc1ccccc1)OCC(=O)N1CCN(S(=O)(=O)c2ccc(Cl)cc2)CC1`, the cell number change came out at 1.39%. Under setting [2], the half-maximal activity concentration (AC50) is 29.1 µM [falling, single point].
As for `O=c1[nH]c(=O)n(Cc2ccco2)c(O)c1C=NCc1cccs1`, the cell number change was -1.73%. Further, the AC50 under setting [2] was 6.51 µM [falling, single point].
For `COc1ccc(C(=O)CN2CCOCC2)cc1F`, the cell number change was -40.7%. Further, the AC50 under setting [1] is 23.1 µM [falling, partial curve]. For the same compound, under setting [2], the half-maximal activity concentration (AC50) is 32.6 µM [falling, partial curve, poor fit].
Regarding `CCC(C)(C)c1ccc(O)cc1`, the cell number change is -31.5%. Further, under setting [1], the concentration at half-maximal activity (AC50) is 4.11 µM [falling, single point]. Further, under setting [2], the AC50 is 0.206 µM [falling, full curve].
Turning to `O=C1NC(=S)N(c2ccccc2)C(=O)/C1=C/c1ccco1`, the cell number change is 21.2%. Further, the AC50 under setting [2] is 29.1 µM [rising, single point].
`Cc1ccc(-c2nc3ccc(Cl)cc3n2OC(=O)N(C)C)cc1`: the cell number change was found to be 9.73%. In addition, the AC50 under setting [1] is 0.164 µM [rising, full curve, poor fit]. In addition, the AC50 under setting [2] is 0.146 µM [rising, full curve, poor fit].
In the case of `CC12CCC3C(CCC4C/C(=N/O)CCC43C)C1CCC2O` (stereo not drawn), the cell number change was found to be 11.7%.
Turning to `O=C(O)CCn1cc(C=C2C(=O)NC(=S)NC2=O)c(-c2ccccc2)n1`, the cell number change was 0.351%. The half-maximal activity concentration (AC50) under setting [2] is 2.06 µM [falling, partial curve, poor fit].
On to `Cc1ccc(C(=O)C2(C)N(O)C(C)C(c3cccs3)=[N+]2[O-])cc1` (stereo not drawn), for which the cell number change is -21.2%. Moreover, the AC50 under setting [2] was 1.16 µM [falling, full curve].
On to `CCCCC(CC)CNCC(O)c1ccccc1` (stereo not drawn), for which, under setting [2], the AC50 is 0.58 µM [falling, single point].
Take `CCOC(=O)C1C2NC(=O)N(Cc3ccccc3)C1(C)Oc1c(OC)cccc12` (stereo not drawn): the cell number change is -12.8%. Besides, the AC50 under setting [2] is 1.64 µM [falling, partial curve].
Take `CNP(=O)(Oc1ccccc1)OC12CC3CC(CC(C3)C1)C2` (stereo not drawn): the cell number change was found to be 8.62%. Under setting [1], the concentration at half-maximal activity (AC50) is 6.51 µM [falling, single point].
On to `Cc1cccc(N2C(=O)CC(=O)NC2=O)c1`, for which the cell number change was -15.7%. The half-maximal activity concentration (AC50) under setting [2] is 4.11 µM [falling, full curve].
In the case of `Cc1ccc(C2=NN(CCC(=O)N3CCC4(CC3)OCCO4)C(=O)CC2)cc1`, the cell number change worked out at 16.3%. In addition, under setting [2], the AC50 was 0.82 µM [falling, single point].
Consider `Cc1nc2ccccc2c(=O)n1-c1ccc(-c2ccccc2)cc1`, for which the cell number change came to 2.13%.
For the compound `CC/C(=N\N1CCCCCC1)c1c(O)n(-c2ccccc2C)c(=O)[nH]c1=O`, the cell number change was found to be 22.6%. Besides, under setting [1], the half-maximal activity concentration (AC50) is 0.461 µM [falling, single point]. Besides, under setting [2], the AC50 is 29.1 µM [falling, single point].
As for `COC(=O)C1=C(c2ccc(OC)c(OC)c2)C[C@@H]2CC[C@H]1N2C(=O)NCCCOC(C)C`, the cell number change was 16.4%. In addition, the half-maximal activity concentration (AC50) under setting [2] was 6.51 µM [rising, single point].
Take `Cc1cc(OCC(=O)N[C@@H](Cc2ccccc2)C(=O)O)c2c3c(c(=O)oc2c1)CCC3`: the cell number change is 9.18%.
`[N-]=[N+]=CC(=O)OC[C@H](N)C(=O)O`: the cell number change was 33.6%. The half-maximal activity concentration (AC50) under setting [2] is 0.82 µM [falling, partial curve, poor fit].
On to `N#Cc1cc2c(nc1SCC(=O)Nc1cc(Cl)ccc1Cl)C1CCN2CC1`, for which the cell number change is -42.1%. The AC50 under setting [1] is 16.4 µM [falling, single point]. Also, the half-maximal activity concentration (AC50) under setting [2] was 16.4 µM [falling, single point].
In the case of `Nc1c2c(nc3sc4c(c13)CCCC4)CCCC2`, the cell number change was -30.4%. Also, the half-maximal activity concentration (AC50) under setting [1] is 8.2 µM [falling, partial curve, poor fit]. Moreover, the concentration at half-maximal activity (AC50) under setting [2] is 13 µM [falling, partial curve, poor fit].
On to `Fc1ccc(C(OCCN2CCCC2)c2ccc(Br)cc2)cc1` (stereo not drawn), for which the cell number change is -0.103%. For the same compound, the concentration at half-maximal activity (AC50) under setting [2] was 0.13 µM [rising, full curve, poor fit].
On to `CC1CN(CC(=O)c2ccccc2Cl)CC(C)O1` (stereo not drawn), for which the cell number change was -10.6%.
Regarding `Cn1c(=O)oc2cc(S(=O)(=O)N3CCCc4ccccc43)ccc21`, the concentration at half-maximal activity (AC50) under setting [2] is 6.51 µM [rising, full curve, poor fit].
On to `CCN(CC)CCNCC(=O)Nc1ccc(Cl)cc1C(=O)c1ccccc1`, for which, under setting [2], the half-maximal activity concentration (AC50) was 1.64 µM [falling, partial curve].
Take `CC(C)(C)c1ccc(CN2C(=O)CN=C(c3ccccc3)c3ccccc32)cc1`: the cell number change is -11.5%. For the same compound, the concentration at half-maximal activity (AC50) under setting [2] is 0.0058 µM [falling, full curve, poor fit].
On to `CCC(=Nc1ccc2c(c1)CCC2)c1c(O)n(-c2ccc(OC)cc2)c(=O)[nH]c1=O`, for which the cell number change is -24.4%. Moreover, the half-maximal activity concentration (AC50) under setting [1] was 0.13 µM [falling, full curve, poor fit]. In addition, the AC50 under setting [2] was 0.731 µM [falling, full curve].
In the case of `CCN1C(=O)NC(=O)/C(=C\c2cn(CC(=O)N3CCCC3)c3ccccc23)C1=O`, the cell number change amounted to 33.6%. Also, the AC50 under setting [1] was 0.0651 µM [rising, full curve, poor fit]. In addition, under setting [2], the concentration at half-maximal activity (AC50) was 0.00517 µM [rising, full curve, poor fit].
Regarding `Cc1cccc(-n2c(O)c(C=NC34CN5CN(CN(C5)C3)C4)c(=O)[nH]c2=O)c1`, the cell number change came to 65.8%. Moreover, under setting [1], the AC50 was 29.1 µM [rising, single point].
For the compound `C[N+]12CN3CN(CN(C3)C1)C2`, the cell number change was -29.8%. For the same compound, the concentration at half-maximal activity (AC50) under setting [1] was 0.184 µM [falling, full curve]. Moreover, the AC50 under setting [2] is 25.9 µM [falling, partial curve].
For `CC(=O)N1CN2CN(C1)CN(C(C)=O)C2`, the cell number change amounted to 18%. The AC50 under setting [2] is 0.00517 µM [rising, full curve, poor fit].
Take `Cc1oc(-c2ccccc2)nc1CN1C(=O)CN=C(c2ccccc2)c2ccccc21`: the cell number change came out at 30.2%. For the same compound, under setting [1], the concentration at half-maximal activity (AC50) was 5.8 µM [rising, partial curve, poor fit]. The AC50 under setting [2] was 6.51 µM [rising, partial curve].
For `O=C(CSC1c2ccccc2-c2ccccc21)N/N=C/c1ccccc1`, the cell number change was -7.74%. Besides, under setting [2], the concentration at half-maximal activity (AC50) was 0.146 µM [falling, partial curve, poor fit].
`CCOc1ccc(N2C(=O)NC(=O)/C(=C\c3ccc(N4CCCCC4)o3)C2=O)cc1`: the cell number change was -2.21%. Moreover, the half-maximal activity concentration (AC50) under setting [2] is 6.51 µM [falling, single point].
Consider `CCn1ccnc1CN1CCCC(C(=O)c2cc(Cl)ccc2OC)C1` (stereo not drawn), for which the cell number change stood at 14.9%. In addition, the concentration at half-maximal activity (AC50) under setting [2] is 0.259 µM [rising, full curve, poor fit].
For `CCOP(=O)(OCC)C(NC(=O)c1ccccc1Cl)=C(Cl)Cl`, the cell number change was -18.8%. Moreover, the concentration at half-maximal activity (AC50) under setting [1] was 0.651 µM [falling, full curve, poor fit].
Regarding `CCCCn1c(=O)c(C(=O)NCc2ccccc2)c(O)c2ccccc21`, the cell number change is 28%.
`O=C(c1ccccc1)C(CN1CCCC1)c1ccccc1` (stereo not drawn): the cell number change is -73%. The concentration at half-maximal activity (AC50) under setting [1] is 25.9 µM [falling, single point]. For the same compound, under setting [2], the half-maximal activity concentration (AC50) is 29.1 µM [falling, single point].
`CCc1ccc(N2C(=O)NC(=O)C(CCc3ccncc3)(CCc3ccncc3)C2=O)cc1`: the cell number change was -45.3%. The concentration at half-maximal activity (AC50) under setting [1] was 32.6 µM [falling, single point].
